Test results as given in patent publication US20240101959A1, “USE OF IL-2R-BETA-GAMMA AGONIST PEPTIDES IN CELL MANUFACTURING” (MEDIKINE, INC., priority 2022, published 2024).
pIC50: −log10 of the molar value. Some of these results come from one statement about several compounds together. At least one structure is not confirmed: it was looked up by name or label, or the drawing left a doubt. Positions of bridges follow the written chain, without caps; N, C: chain ends. Residues, ends and D or L forms follow the SMILES beside them.

Target: T1, hu-IL-2Rγc subunit (Homo sapiens, UniProt P31785)
T1 sequence (P31785 23-369): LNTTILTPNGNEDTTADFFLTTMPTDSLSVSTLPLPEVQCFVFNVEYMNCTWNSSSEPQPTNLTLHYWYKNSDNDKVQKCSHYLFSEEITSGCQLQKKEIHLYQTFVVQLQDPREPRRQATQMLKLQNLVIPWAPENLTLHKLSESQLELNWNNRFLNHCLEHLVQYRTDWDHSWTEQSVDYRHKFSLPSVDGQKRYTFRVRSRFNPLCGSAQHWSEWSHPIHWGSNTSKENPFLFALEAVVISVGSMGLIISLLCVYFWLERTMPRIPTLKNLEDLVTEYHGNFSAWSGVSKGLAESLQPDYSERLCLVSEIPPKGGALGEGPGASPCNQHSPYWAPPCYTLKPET
Test: binding to hu-IL-2Rγc subunit, phage ELISA competition assays

Row | SMILES | pIC50
1 | CC(C)C[C@@H]1NC(=O)[C@H](CCC(=O)O)NC(=O)[C@H](C(C)C)NC(=O)CNC(=O)[C@H](CCC(=O)O)NC(=O)[C@H](Cc2c[nH]c3ccccc23)NC(=O)[C@H](CC(=O)O)NC(=O)[C@H](CCC(N)=O)NC(=O)[C@@H](NC(=O)[C@@H](NC(=O)[C@@H](N)C(C)C)C(C)C)CSSC[C@@H](C(=O)N[C@@H](Cc2c[nH]c3ccccc23)C(=O)N[C@@H](CCC(N)=O)C(=O)O)NC1=O [SEQ ID NO: 652, V V C Q D W E G V E L C W Q] (H-VVCQDWEGVELCWQ-OH; disulfide 3-12 (inferred); N-terminus and C-terminus assumed) | > 5.00
2 | CC[C@H](C)[C@@H]1NC(=O)[C@H](CCC(=O)O)NC(=O)[C@H](C(C)C)NC(=O)CNC(=O)[C@H](CC(N)=O)NC(=O)[C@H](Cc2c[nH]c3ccccc23)NC(=O)[C@H](CC(=O)O)NC(=O)[C@H](CCC(N)=O)NC(=O)[C@@H](NC(=O)[C@H](CCC(=O)O)NC(=O)[C@H](CC(C)C)NC(=O)[C@H](CCC(=O)O)NC(=O)[C@H](CO)NC(=O)[C@H](CCSC)NC(=O)[C@H](CC(N)=O)NC(=O)[C@H](Cc2c[nH]c3ccccc23)NC(=O)[C@@H](N)[C@@H](C)O)CSSC[C@@H](C(=O)N[C@@H](Cc2c[nH]c3ccccc23)C(=O)N[C@@H](Cc2c[nH]cn2)C(=O)O)NC1=O [SEQ ID NO: 668, TWNMSELECQDWNGVEICWH] (H-TWNMSELECQDWNGVEICWH-OH; disulfide 9-18 (inferred); N-terminus and C-terminus assumed) | > 5.00
3 | CC(C)C[C@H](NC(=O)[C@H](Cc1c[nH]c2ccccc12)NC(=O)[C@@H]1CSSC[C@H](NC(=O)[C@H](CCC(=O)O)NC(=O)[C@@H](NC(=O)[C@H](CCC(=O)O)NC(=O)[C@@H](NC(=O)[C@@H](N)CCCNC(=N)N)[C@@H](C)O)C(C)C)C(=O)N[C@@H](CCC(=O)O)C(=O)N[C@@H](CC(=O)O)C(=O)N[C@@H](Cc2c[nH]c3ccccc23)C(=O)N[C@@H](CCC(=O)O)C(=O)NCC(=O)N[C@@H](C(C)C)C(=O)N[C@@H](CCC(=O)O)C(=O)N[C@@H](CC(C)C)C(=O)N1)C(=O)O [SEQ ID NO: 713, R T E V E C E D W E G V E L C W L] (H-RTEVECEDWEGVELCWL-OH; disulfide 6-15 (inferred); N-terminus and C-terminus assumed) | > 5.00
